In patent publication US20030013169, “Transcription factor E2F DNA-binding domain inhibitor peptides and their use” (published 2003):
For at least one entry, the source does not settle the construct or the ends of the probe. Where cells or extracts were used, other partners may take part.

Assays:
[1] = test system: ATF (endogenous, nuclear extract); assay: EMSA; conditions: binding not inhibited by E2F peptides, protein in an extract, label: 32P fill-in
[2] = test system: Sp1 (endogenous, nuclear extract); assay: EMSA; conditions: binding not inhibited by E2F peptides, protein in an extract, label: 32P fill-in

## CGCCTTGAATGACGTCAAGGCCGCGA (double strand) [ATF probe]
[1]
  binding result: binds

## ATGGGGCGGAGA (double strand) [Sp1 probe]
[2]
  binding result: binds
